# Assay results taken from US4267189A, “Method of use and composition for 1,3-dihydro-3-(2-hydroxy-2-methylpropyl)-2H-isoindol-1-one” (American Home Products Corporation, priority 1979, dated 1981).
# Tested on: Gastric Acid Secretion
# Assay: Basal gastric acid secretion in the Shay (pylorus-ligated) rat
# Assay type: in vivo, rat (female Sprague Dawley)
# Conditions: for Gastric Acid Output: mean ± S.E.; for ED50: Rattus norvegicus, gastric acid secretion
# Procedure: Female Sprague Dawley rats (Canadian Breeding Laboratories; 160-180 g) were fasted for 48 hours before pyloric ligation. After the first 24 hours of fasting the animals were given access to 8% sucrose in 0.2% sodium chloride for 8 hours. Water was permitted ad libitum except during the 8 hour access to sucrose and after the drug treatment. The compounds were suspended in water with the aid of one drop of Tween 80 per 7 ml for oral or intraperitoneal administration. The pylorus was ligated under ether anesthesia and the sutured incision was covered with flexible collodion to prevent the animals from ingesting adhering blood. The stomachs were lavaged with 0.9% sodium chloride until the return solution was clear. Four hours after pyloric ligation, the animals were killed with diethyl ether and the gastric contents were collected in centrifuge tubes. The amount of acid in the centrifuged gastric juice was determined by titration against 0.1 N sodium hydroxide in a direct reading pH meter of pH 7.0.
# Student's t test was used in the evaluation of the data. The ED50 's were obtained graphically by plotting the percent inhibition of gastric acid secretion versus the logarithm of the dose of the compound.
structure (smiles),measurement,setting,value
"CN1[C@@H]2CC[C@H]1C[C@@H](OC(=O)C(CO)c1ccccc1)C2 (some centres unmarked) [Atropine, reference compound]",Gastric Acid Output (% Inhibition),0.25 mg/kg i.p.,49 % Inhibition
same,Gastric Acid Output,0.25 mg/kg i.p.,278 ± 38 μEg/4 hr
same,Gastric Acid Output (% Inhibition),0.5 mg/kg i.p.,50 % Inhibition
same,Gastric Acid Output,0.5 mg/kg i.p.,270 ± 37 μEg/4 hr
same,Gastric Acid Output (% Inhibition),1 mg/kg i.p.,67 % Inhibition
same,Gastric Acid Output,1 mg/kg i.p.,182 ± 48 μEg/4 hr
same,Gastric Acid Output (% Inhibition),2 mg/kg p.o.,0 % Inhibition
same,Gastric Acid Output,2 mg/kg p.o.,436 ± 77 μEq/4 hr
same,Gastric Acid Output (% Inhibition),4 mg/kg p.o.,33 % Inhibition
same,Gastric Acid Output,4 mg/kg p.o.,290 ± 60 μEq/4 hr
same,Gastric Acid Output (% Inhibition),8 mg/kg p.o.,57 % Inhibition
same,Gastric Acid Output,8 mg/kg p.o.,186 ± 53 μEq/4 hr
same,ED50,"ip, intraperitoneal administration",0.5 mg/kg
same,ED50,oral administration,7 mg/kg
